Values of other authors, collected in US9968621B2, “Parenteral compositions of celecoxib” (Dr. Reddy's Laboratories Ltd., priority 2014, dated 2018).

Solubility in water: essentially insoluble in water
SMILES: Cc1ccc(-c2cc(C(F)(F)F)nn2-c2ccc(S(N)(=O)=O)cc2)cc1 [Celecoxib, 4-[5-(4-methylphenyl)-3-(trifluoromethyl)-1H-pyrazol-1-yl] benzenesulfonamide]
